Data reported in US10808249B2, “Methods and compositions for weed control” (Monsanto Technology LLC, priority 2011, dated 2020).
Some results were stated once for a whole list of compounds, not compound by compound.

Tested on: dandelion
Assay: Dandelion treated with long polynucleotide trigger molecules
Type: in vivo, Taraxacum officinale
Conditions: 14 days after treatment, more variability in the replications

B1: SEQ ID NO: 2151: long polynucleotide trigger molecule tested on dandelion (nucleic acid)
chain: GTCTAAATCTTATCGATGATGTAATACCAAACTCAACAAGAGACTCTTATCAGATAGCCCTTAACATTGCATTTATAATATATGTTTATAAAAAGTAACATGGAATATATGTACAAATACACAAATTTATAATCACATTGCGGACATTTGATCCGATAAC
modifications: Taraxacum officinale
notes: long polynucleotide trigger molecule tested on dandelion
growth reduction by visual rating, average in 4 replications: 15-40%

B2: SEQ ID NO: 2152: long polynucleotide trigger molecule tested on dandelion (nucleic acid)
chain: GAAAAATAATGATATTTGTTTTTTTAGTTATAAAAAATGTTTTTAAAGTGTTAGTTGCAGTTTAGCCGGAGGGAGGAGTGAGGACGGTATATTCCTAACAATGGATGACGAAGTTCCAACAACGAAAGAAGCCAAAAACAATCCCAAAATTGAAAGCC
modifications: Taraxacum officinale
notes: as for B1
growth reduction by visual rating, average in 4 replications: 15-40%
